Laboratory results: PubChem BioAssay AID1259424 (University of Nebraska Medical Center, 2018)

Assay: 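Find knockdowns that reproduce the expression shifts seen after KSR1 loss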 (primary screen)
Cell system: human HCT116 colon cancer cells
Knock-down reagent: siRNA pool against human genes, 50 nM
Measurement: 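Six signature mRNAs by branched-DNA multiplex assay, scaled to two housekeeping genes and non-targeting median, log2; matched to mean KSR1 knockdown profile by Pearson correlation and euclidean distance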
Reading the numbers: mean correlation with KSR1 profile: higher = expression change more like KSR1 knockdown
In all, the deposit lists about 14,000 reagents; this is a part drawn at random. 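Higher correlation or smaller distance means closer resemblance to KSR1 loss; control wells, including KSR1 knockdowns, recur on many plates.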 Further read-outs or replicates are left out here. Not given: the time to read-out.

OR1D5 (olfactory receptor family 1 subfamily D member 5)
- mean correlation with KSR1 profile: -0.178

PSMB5 (proteasome 20S subunit beta 5)
- mean correlation with KSR1 profile: -0.183

SCML1 (Scm polycomb group protein like 1)
- mean correlation with KSR1 profile: -0.204

NMBR (neuromedin B receptor)
- mean correlation with KSR1 profile: 0.751

NOX4 (NADPH oxidase 4)
- mean correlation with KSR1 profile: 0.0612

GPRC5D (G protein-coupled receptor class C group 5 member D)
- mean correlation with KSR1 profile: -0.0398

P2RX2 (purinergic receptor P2X 2)
- mean correlation with KSR1 profile: -0.503

DDHD2 (DDHD domain containing 2)
- mean correlation with KSR1 profile: -0.418

OR10A5 (olfactory receptor family 10 subfamily A member 5)
- mean correlation with KSR1 profile: 0.436

RLN2 (relaxin 2)
- mean correlation with KSR1 profile: 0.442

CRYGS (crystallin gamma S)
- mean correlation with KSR1 profile: 0.245

MEMO1 (mediator of cell motility 1)
- mean correlation with KSR1 profile: -0.0587

FHL3 (four and a half LIM domains 3)
- mean correlation with KSR1 profile: -0.246

SRGAP1 (SLIT-ROBO Rho GTPase activating protein 1)
- mean correlation with KSR1 profile: -0.149

RXRB (retinoid X receptor beta)
- mean correlation with KSR1 profile: -0.483

NUSAP1 (nucleolar and spindle associated protein 1)
- mean correlation with KSR1 profile: -0.272

LATS2 (large tumor suppressor kinase 2)
- mean correlation with KSR1 profile: 0.536

FAM86C1P (family with sequence similarity 86 member C1, pseudogene)
- mean correlation with KSR1 profile: 0.434

RBM10 (RNA binding motif protein 10)
- mean correlation with KSR1 profile: -0.839

IQGAP2 (IQ motif containing GTPase activating protein 2)
- mean correlation with KSR1 profile: 0.319

GTF2E2 (general transcription factor IIE subunit 2)
- mean correlation with KSR1 profile: 0.692

SSH2 (slingshot protein phosphatase 2)
- mean correlation with KSR1 profile: 0.0843

NOB1 (NIN1 (RPN12) binding protein 1 homolog)
- mean correlation with KSR1 profile: 0.0824

DIAPH1 (diaphanous related formin 1)
- mean correlation with KSR1 profile: -0.25

OR4D1 (olfactory receptor family 4 subfamily D member 1)
- mean correlation with KSR1 profile: 0.544

CIDEB (cell death inducing DFFA like effector b)
- mean correlation with KSR1 profile: 0.0146

FES (FES proto-oncogene, tyrosine kinase)
- mean correlation with KSR1 profile: -0.249

MPC2
- mean correlation with KSR1 profile: -0.444

CZIB (CXXC motif containing zinc binding protein)
- mean correlation with KSR1 profile: -0.508

MTMR2 (myotubularin related protein 2)
- mean correlation with KSR1 profile: 0.288

CDH4 (cadherin 4)
- mean correlation with KSR1 profile: 0.088

SLC24A3
- mean correlation with KSR1 profile: 0.58

ZNF317 (zinc finger protein 317)
- mean correlation with KSR1 profile: 0.272

SCAMP1
- mean correlation with KSR1 profile: -0.182

LRCH2
- mean correlation with KSR1 profile: -0.434

RASGRF2 (Ras protein specific guanine nucleotide releasing factor 2)
- mean correlation with KSR1 profile: 0.715
